Results: patent EP0438519B1 (The Administrators of The Tulane Educational Fund, priority 1988, dated 1998)

Assay: general procedure: Boc solid-phase peptide synthesis; Benzhydrylamine-polystyrene resin; diisopropylcarbodiimide (hydroxybenzotriazole for Gln, D-Phe)
Conditions: whole synthesis, scale 0.5 mmole

## D-Phe-Gln-Trp-Ala-Val-Gly-His-Leuψ[CH2NH]-D-Phe-NH2
  isolated mass: 120 mg

## D-Phe-Gln-Trp-Ala-Val-Gly- His-Leuψ[CH2NH]-D-Phe-NH2
  isolated mass: 120 mg
